Data from paper PMC11200088.
Results are given in words; binding and its absence hold for the method and conditions named. Binding seen in cells or lysates may run through a third protein. Some results given as binding are weak or reduced against the parent protein; the word gives no strength.

Sequences of proteins named here, by UniProt entry; tags and fusion partners are left off. Residues count along the entry.
UniProt P22626: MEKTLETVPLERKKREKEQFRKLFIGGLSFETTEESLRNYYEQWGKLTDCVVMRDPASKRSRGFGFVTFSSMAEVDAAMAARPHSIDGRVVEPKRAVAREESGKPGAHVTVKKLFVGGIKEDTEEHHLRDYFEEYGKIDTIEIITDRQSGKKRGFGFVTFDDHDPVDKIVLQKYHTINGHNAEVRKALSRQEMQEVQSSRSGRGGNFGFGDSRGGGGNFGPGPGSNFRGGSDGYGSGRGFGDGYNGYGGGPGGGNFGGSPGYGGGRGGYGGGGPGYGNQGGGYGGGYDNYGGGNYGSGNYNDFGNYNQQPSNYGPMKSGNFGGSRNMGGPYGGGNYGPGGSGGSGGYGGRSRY
UniProt P05161, residues 1-157: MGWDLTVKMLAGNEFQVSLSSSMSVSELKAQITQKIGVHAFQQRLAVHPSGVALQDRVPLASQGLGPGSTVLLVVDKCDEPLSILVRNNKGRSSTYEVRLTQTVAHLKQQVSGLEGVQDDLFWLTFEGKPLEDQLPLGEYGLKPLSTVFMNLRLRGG

Biological target: heterogeneous nuclear ribonucleoprotein A2/B1 (hnRNPA2B1) (human (endogenous in breast cancer cell lines)) (UniProt P22626)
Experiment: co-IP; endogenous proteins in lysates of hypoxic (1% O2) breast cancer cells; antibodies and Protein A/G beads overnight at 4 °C, Western blot; lysis buffer S (20 mM sodium phosphate pH 7.4, 150 mM NaCl, 1% SDS, 1% Triton, 0.5% sodium deoxycholate), boiled 10 min; for ISG15 with hnRNPA2B1 also after ectopic PCAT6 expression (more binding) or PCAT6 knock-down (less binding)

binding: binds
Substance: interferon-stimulated gene 15 (ISG15) (from UniProt P05161 1-157)
